# Test results reported in PubChem BioAssay AID200 (DTP/NCI, 2004).
# The list shows only some results of the screen, not a fair sample: it gathers tests that were run many times, whatever their T/C, doses with no T/C, and many T/C values between a quarter and a half above the control. Further doses and runs are listed elsewhere. T/C gives the treated animals as a percentage of the vehicle group. Some entries give survivors of the animals treated and no T/C: the source holds a T/C of zero for them, seemingly a mark for toxic or unscored doses. Some doses without a T/C left all or most animals alive at the check, yet need not have been tolerated: survival well below the control is almost never listed, so the zero probably covers shortened survival too. Counts of survivors are from the toxicity check (mostly the fifth day) where no day follows; animals may have died later. Schedule codes are those of the source, taken here to give the interval after Q, in days (D) or hours (H), and the number of doses after X. Some doses were run more than once; the values are given in rising order. Where survival is the endpoint, this PubChem deposit counts one and a half times the control or more as active, and values a quarter to a half above the control carry no call in these data; other NCI protocols may use other cut-offs. Some T/C values are followed by the survivors on the day toxicity was checked, most often the fifth; where none is given, no animal had died by that day.
# Tested on: B6C3F1 mice, B16 melanoma ip, median survival T/C
# Assay: NCI In Vivo Anticancer Drug Screen. Data for tumor model B16 Melanoma (intraperitoneal) in B6C3F1 mice
# Conditions: T/C endpoint: median survival time, higher T/C = longer survival
# Method in brief: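 Transplantable tumor in mice; treated vs vehicle control groups; survival or tumor size measured; value = T/C ratio.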
# [1] = dose: 50.0 mg/kg/injection, schedule: Q01DX009 (ip), vehicle: saline with Tween-80
# [2] = dose: 100.0 mg/kg/injection, schedule: Q01DX009 (ip), vehicle: saline with Tween-80
# [3] = dose: 200.0 mg/kg/injection, schedule: Q01DX009 (ip), vehicle: saline with Tween-80
# [4] = dose: 400.0 mg/kg/injection, schedule: Q01DX009 (ip), vehicle: saline with Tween-80
# [5] = dose: 200.0 mg/kg/injection, schedule: Q01DX009 (ip), vehicle: saline
# [6] = dose: 50.0 mg/kg/injection, schedule: Q01DX009 (ip), vehicle: saline
# [7] = dose: 69.45 mg/kg/injection, schedule: Q01DX009 (ip), vehicle: saline
# [8] = dose: 24.0 mg/kg/injection, schedule: Q01DX009 (ip), vehicle: distilled water + Tween-80
smiles,measurement,setting,value
CC(=O)[O][Pb]([O]C(C)=O)([c]1ccccc1)[c]1ccccc1,survivor count,"dose: 100.0 mg/kg/injection, schedule: Q01DX009 (ip), vehicle: Klucel (hydroxypropylcellulose) (HPC)",9 of 10
same,survivor count,"dose: 200.0 mg/kg/injection, schedule: Q01DX009 (ip), vehicle: Klucel (hydroxypropylcellulose) (HPC)",6 of 10
c1ccc(OCC2CO2)c(OCC2CO2)c1 (configuration not stated),T/C,[1],140 % of control
same,T/C,[2],145 % of control
same,T/C,[3],128 % of control [9 of 10 alive]
same,survivor count,[3],7 of 10
same,survivor count,[4],4 of 10
CC1=C(O)C(=O)[C@@H]2O[C@@H]2C1=O,survivor count,"dose: 25.0 mg/kg/injection, schedule: Q01DX009 (ip), vehicle: saline",5 of 10 and 6 of 10
Cc1cc(=O)n2c3c(c4c(cc13)c(CN(C)C)cc(=O)n4C)OC2,survivor count,[2],4 of 10
C=C1C(=O)C2=CC1CCC(=O)C1(C)CCC(OC(C)=O)C(C)(C)C1CC2O (configuration not stated),survivor count,"dose: 60.0 mg/kg/injection, schedule: Q01DX009 (ip), vehicle: Klucel (hydroxypropylcellulose) (HPC)",6 of 10 and 8 of 10
same,survivor count,"dose: 120.0 mg/kg/injection, schedule: Q01DX009 (ip), vehicle: Klucel (hydroxypropylcellulose) (HPC)",0 of 10
CCN(CC)CCNc1ccc(C)c2sc3ccccc3c(=O)c12,survivor count,[5],9 of 10
C=C1CCOC2(C(O)C(C)(O)CO)NC(=O)C1(O)NC2=O (configuration not stated),survivor count,"dose: 400.0 mg/kg/injection, schedule: Q01DX009 (ip), vehicle: saline",9 of 10
CS(=O)(=O)CS(=O)(=O)OCCF,T/C,"dose: 12.5 mg/kg/injection, schedule: Q01DX009 (ip), vehicle: saline",128 % of control
same,survivor count,[6],5 of 10
same,T/C,[7],147 % of control
same,survivor count,[7],7 of 10
same,survivor count,"dose: 115.75 mg/kg/injection, schedule: Q01DX009 (ip), vehicle: saline",4 of 10
COP12(OCCO1)SC(C(F)(F)F)=C(C(F)(F)F)S2,survivor count,[2],0 of 10
same,survivor count,[3],0 of 10
same,survivor count,[4],0 of 10
O=C(O)CP(=O)(O)O,T/C,[5],134 % of control
same,survivor count,"dose: 1600.0 mg/kg/injection, schedule: Q01DX009 (ip), vehicle: saline",10 of 10
same,survivor count,"dose: 3200.0 mg/kg/injection, schedule: Q01DX009 (ip), vehicle: saline",0 of 10
C[CH2][Ge]([CH2]C)[CH2]C.C[CH2][Ge]([CH2]C)[CH2]C.C[CH2][Ge]([CH2]C)[O][Ge]([CH2]C)[CH2]C,survivor count,"dose: 25.0 mg/kg/injection, schedule: Q01DX009 (ip), vehicle: saline with Tween-80",10 of 10
Cc1cc2nc3ccc(N)cc3oc-2cc1=[N+](C)C,survivor count,[6],9 of 10
O=NN(CCCl)C(=O)NCCCl,T/C,"dose: 1.5 mg/kg/injection, schedule: Q01DX009 (ip), vehicle: saline + alcohol","113, 118, 119, 121 % of control"
same,T/C,"dose: 3.0 mg/kg/injection, schedule: Q01DX009 (ip), vehicle: alcohol",129 and 135 % of control
same,T/C,"dose: 3.0 mg/kg/injection, schedule: Q01DX009 (ip), vehicle: saline + alcohol","114, 118, 125, 138 % of control [7 of 8 alive]"
same,T/C,"dose: 5.0 mg/kg/injection, schedule: Q01DX005 (ip), vehicle: saline + alcohol",138 % of control
same,T/C,"dose: 6.0 mg/kg/injection, schedule: Q01DX009 (ip), vehicle: saline + alcohol","148, 157, 159, 164 % of control"
same,T/C,"dose: 10.0 mg/kg/injection, schedule: Q01DX005 (ip), vehicle: saline + alcohol",127 % of control
same,survivor count,"dose: 12.0 mg/kg/injection, schedule: Q01DX009 (ip), vehicle: alcohol",9 of 10 and 10 of 10
same,T/C,"dose: 12.0 mg/kg/injection, schedule: Q01DX009 (ip), vehicle: saline + alcohol","109 [9 of 10 alive], 113, 172 [9 of 10 alive], 193 % of control"
same,T/C,"dose: 15.0 mg/kg/injection, schedule: Q01DX001 (ip), vehicle: saline",137 % of control [6 of 7 alive]
same,T/C,"dose: 20.0 mg/kg/injection, schedule: Q01DX001 (iv), vehicle: saline + alcohol",129 % of control
same,survivor count,"dose: 20.0 mg/kg/injection, schedule: Q01DX005 (ip), vehicle: saline + alcohol",10 of 10
same,survivor count,"dose: 20.0 mg/kg/injection, schedule: Q01DX005 (iv), vehicle: saline + alcohol",10 of 10
same,survivor count,"dose: 24.0 mg/kg/injection, schedule: Q01DX009 (ip), vehicle: alcohol",10 of 10
same,survivor count,"dose: 24.0 mg/kg/injection, schedule: Q01DX009 (ip), vehicle: other",9 of 10
same,survivor count,"dose: 24.0 mg/kg/injection, schedule: Q01DX009 (ip), vehicle: saline + alcohol","9 of 10, 10 of 10, 8 of 8"
same,T/C,"dose: 32.0 mg/kg/injection, schedule: Q01DX001 (ip), vehicle: saline",148 % of control
same,survivor count,"dose: 40.0 mg/kg/injection, schedule: Q01DX005 (ip), vehicle: saline + alcohol",10 of 10
same,survivor count,"dose: 40.0 mg/kg/injection, schedule: Q01DX005 (iv), vehicle: saline + alcohol",10 of 10
same,survivor count,"dose: 80.0 mg/kg/injection, schedule: Q01DX001 (ip), vehicle: saline + alcohol",9 of 10
same,survivor count,"dose: 80.0 mg/kg/injection, schedule: Q01DX001 (iv), vehicle: saline + alcohol",10 of 10
CCCCCCCC(=O)N/N=C(\CO)[C@]1(O)Cc2c(O)c3c(c(O)c2[C@@H](OC2CC(N)C(O)C(C)O2)C1)C(=O)c1c(OC)cccc1C3=O (some centres not stated),survivor count,"dose: 24.0 mg/kg/injection, schedule: Q01DX009 (ip), vehicle: water",10 of 10
same,survivor count,"dose: 48.0 mg/kg/injection, schedule: Q01DX009 (ip), vehicle: saline",10 of 10
same,survivor count,"dose: 48.0 mg/kg/injection, schedule: Q01DX009 (ip), vehicle: water",10 of 10
COc1ccc2c(c1)CCn1c(C)c(COC(=O)NC(C)C)c(COC(=O)NC(C)C)c1-2,T/C,"dose: 3.0 mg/kg/injection, schedule: Q01DX009 (ip), vehicle: distilled water + Tween-80",125 and 126 % of control
same,T/C,"dose: 6.0 mg/kg/injection, schedule: Q01DX009 (ip), vehicle: distilled water + Tween-80","137, 141, 144 % of control"
same,T/C,"dose: 6.25 mg/kg/injection, schedule: Q01DX009 (ip), vehicle: distilled water + Tween-80",149 % of control
same,T/C,"dose: 12.0 mg/kg/injection, schedule: Q01DX009 (ip), vehicle: distilled water + Tween-80",132 and 134 % of control
same,T/C,[8],145 % of control
same,survivor count,[8],10 of 10 and 9 of 9
same,survivor count,"dose: 25.0 mg/kg/injection, schedule: Q01DX009 (ip), vehicle: distilled water + Tween-80",10 of 10
same,survivor count,"dose: 48.0 mg/kg/injection, schedule: Q01DX009 (ip), vehicle: distilled water + Tween-80",5 of 10
same,survivor count,"dose: 50.0 mg/kg/injection, schedule: Q01DX009 (ip), vehicle: distilled water + Tween-80",10 of 10
O=NNc1ncc(Br)cc1Br,T/C,"dose: 50.0 mg/kg/injection, schedule: Q01DX009 (ip), vehicle: water",144 % of control
O=[N+]([O-])c1ccc(N(CCO)CCO)c2c1no[n+]2[O-],survivor count,[1],10 of 10
same,survivor count,[2],5 of 10
CCCCCCCCCCCCOCCCOP(=O)([O-])OCC[N+](C)(C)C,survivor count,[6],10 of 10
same,survivor count,"dose: 100.0 mg/kg/injection, schedule: Q01DX009 (ip), vehicle: saline",10 of 10
C[CH2][Pb]([CH2]C)([CH2]C)[O]C(=O)COc1ccccc1,survivor count,"dose: 12.0 mg/kg/injection, schedule: Q01DX009 (ip), vehicle: Klucel (hydroxypropylcellulose) (HPC)",5 of 10
COc1cccc2c1C(=O)c1c(O)c3c(c(O)c1C2=O)C[C@@](O)(C(=O)CO)C[C@@H]3OC1CC(N2CCOCC2C#N)C(O)C(C)O1 (some centres not stated),survivor count,"dose: 75.0 micrograms/kg/injection, schedule: Q01DX001 (ip), vehicle: water",3 of 10
same,survivor count,"dose: 150.0 micrograms/kg/injection, schedule: Q01DX001 (ip), vehicle: water",0 of 10
NC(=S)c1ncn(C2OC(COC=O)C(OC=O)C2OC=O)c1NC=O (configuration not stated),survivor count,"dose: 400.0 mg/kg/injection, schedule: Q01DX009 (ip), vehicle: Klucel (hydroxypropylcellulose) (HPC)",10 of 10
